PubChem BioAssay AID2685 (National Center for Advancing Translational Sciences (NCATS), 2010)
The other results are listed elsewhere or left out. Further columns of the screen follow, without active or inactive calls. Most of these compounds were active or inconclusive in the main read-out, so they are no random draw. The note in brackets gives the kind of curve behind each potency; many fits are weak.

Assay: qHTS Assay for Lipid Storage Modulators in Drosophila S3 Cells;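 as to cell number change: cells counted by Cell Tracker Red CMTPX staining in the red channel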
Conditions: BODIPY lipid droplet fluorescence, 18-24 h; for cell number change: measured here: cell count max response, cells fed with added oleic acid
In short: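 Drosophila S3 cells loaded with oleic acid (400 uM, as added) and compounds at several concentrations; lipid droplets imaged by 488-nm laser-scanning cytometry, 500–530 nm intensity and object ratio to cell channel. Percent activity normalized to 20 uM Triacsin C.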

[1] = measured here: lipid fluorescence (Fed channel) AC50, cells fed with added oleic acid
[2] = measured here: cell number channel AC50, cells fed with added oleic acid

Row | SMILES | cell number change [%] | AC50 [1] | AC50 [2]
1 | CCOC(=O)N1CCN(C(=O)Cn2nc(C)n3nc(-c4ccccc4)cc3c2=O)CC1 | 22.1 |  | 
2 | O=C(OCN1C(=O)c2ccccc2C1=O)c1cc(S(=O)(=O)N2CCOCC2)ccc1F | -17.2 |  | 
3 | CN(CC(=O)NCc1ccncc1)S(=O)(=O)c1ccc(F)cc1 | 17.9 | 5.8 µM [falling, partial curve] | 
4 | CC(=O)Nc1ccc(S(=O)(=O)NCC(CCC(=O)O)C(F)(F)F)cc1 (stereo not given) | -56.5 |  | 20.6 µM [falling, single point]
5 | Cc1cccc(NC(=O)c2ccc(CN3CCN(Cc4ccccc4)CC3)cc2)c1 | 0.0397 | 7.31 µM [rising, single point] | 
6 | O=C(c1ccc2ccccc2n1)N1CCN(c2ccccc2Cl)CC1 |  |  | 6.51 µM [rising, single point]
7 | CCCOc1cc(C)c(S(=O)(=O)n2ccc(C)n2)cc1C | 58.2 | 16.4 µM [rising, partial curve] | 9.2 µM [rising, partial curve]
8 | O=C(COC(=O)c1ccc(O)cc1)Nc1cc(C(F)(F)F)ccc1Cl | 4.27 |  | 
9 | C/C(=N\NC(=O)C(N)=O)c1ccc2c(c1)OCCO2 | -13.1 | 14.1 µM [falling, single point] | 
10 | Cn1nccc1CNC(=O)c1ccnn1C | -23.5 | 6.51 µM [rising, single point] | 4.61 µM [rising, single point]
11 | Cc1ccc(NC(=O)c2cccc(S(=O)(=O)NCc3ccccc3)c2)nc1 | 79.1 |  | 20.6 µM [rising, partial curve]
12 | CSc1nnc(-c2ccncc2)n1CCCN1CCCC1=O |  | 0.92 µM [falling, full curve] | 
13 | CC(NC(=O)C1CCCN1S(=O)(=O)c1cccc2cccnc12)c1ccccc1 (stereo not given) | -18.2 |  | 
14 | Cc1ccc(S(=O)(=O)Oc2ccc(/C=C(/NC(=O)c3ccccc3)C(=O)O)cc2)cc1 | 3.82 |  | 0.651 µM [rising, single point]
15 | Cc1onc(NC(=O)NC(=O)c2c(Cl)cccc2Cl)c1Br |  | 29.1 µM [rising, single point] | 
16 | Cc1ccccc1NC1=NS(=O)(=O)c2ccccc21 |  | 29.1 µM [falling, single point] | 
17 | CCc1ccc(-c2cc(C(F)(F)F)n3nc(C(=O)Nc4cnn(Cc5ccccc5C)c4)cc3n2)s1 | -5.17 | 1.64 µM [rising, partial curve, poor fit] | 
18 | O=C(Nc1ccc(NC(=O)c2ccccc2Cl)cc1)c1cccnc1 | 6.76 | 0.58 µM [rising, single point] | 
19 | Cc1cc(C2C(=O)c3ccccc3C2=O)c(C)c(C)c1C | -0.518 | 0.13 µM [falling, full curve, poor fit] | 
20 | COc1cc2c(cc1O)[C@@H]1Cc3cc(O)c(OC)cc3[C@H](C2)N1C | -27.5 | 29.1 µM [falling, single point] | 
21 | Cc1ccc(CNC(=O)c2cc3c(=O)n4cccc(C)c4nc3n(CC3CCCO3)c2=N)cc1 (stereo not given) | 8.72 |  | 

Row | SMILES | cell number change [%] | AC50 [1] | AC50 [2]
22 | COc1ccc(/C=C/C(=O)NC(=S)NCCc2ccc(OC)c(OC)c2)cc1 | -49.1 |  | 13 µM [falling, single point]
23 | O=C(CCS(=O)(=O)c1ccc(Cl)cc1)Nc1nnc(-c2cccs2)o1 | 53.9 |  | 29.1 µM [rising, single point]
24 | COc1ccc(Br)cc1/C=N/NC(=O)CNC(=O)c1cccnc1 | 10.8 | 0.013 µM [rising, full curve, poor fit] | 
25 | Cc1nn(C)cc1/C=N/NC(=O)CSc1ccccn1 | -21 | 1.46 µM [falling, partial curve] | 2.06 µM [falling, partial curve, poor fit]
26 | CCOC(=O)c1sc(SC)c2c1CCC/C2=N/OC | 49.9 | 0.651 µM [rising, full curve, poor fit] | 0.92 µM [rising, full curve]
27 | CC(=O)Oc1ccc(N(C(C)=O)S(=O)(=O)c2cccs2)c2ccccc12 | 20.3 |  | 
28 | CC1CCN(C(=O)COC(=O)c2cccc(NS(=O)(=O)c3ccccc3)c2)CC1 | -20.7 | 20.6 µM [falling, single point] | 
29 | COc1ccc(C(=O)Nc2ccccc2[N+](=O)[O-])cc1S(=O)(=O)N1CCOCC1 | -18.5 | 1.84 µM [falling, partial curve] | 
30 | CCCCN(CCCNC(=O)c1ccc(CS(=O)(=O)c2ccc(OC)cc2)o1)Cc1ccccc1 | -35.6 |  | 29.1 µM [falling, single point]
31 | O=C(COC(=O)c1cc[n+]([O-])cc1)Nc1ccccc1Cl | -4.31 |  | 5.17 µM [falling, single point]
32 | COc1ccccc1N1CCN(C(c2ccccn2)c2nnnn2C2CCCCC2)CC1 (stereo not given) |  | 0.326 µM [rising, full curve] | 1.03 µM [rising, full curve]
33 | COc1ccc(C(=O)/C=C2/C(=O)Nc3ccccc32)c(OC)c1 | -71.1 | 16.4 µM [falling, single point] | 14.6 µM [falling, partial curve]
34 | O=C(O)c1cccc(C(=O)c2cccc(C(=O)O)c2)c1 | 27.3 |  | 
35 | O=C(NCC(c1cccs1)N1CCOCC1)c1cc(=O)[nH]c2ccccc12 (stereo not given) | 19.3 | 0.731 µM [falling, single point] | 
36 | CC(NC(=O)c1ccc([N+](=O)[O-])cc1[N+](=O)[O-])c1ccc(-c2ccccc2)cc1 (stereo not given) | 32.5 | 5.8 µM [rising, partial curve] | 2.59 µM [rising, full curve]
37 | CCOc1ccc(C(c2c(NC(=O)c3ccccc3)sc(C)c2C)N2CCN(CCO)CC2)cc1 (stereo not given) | -36 | 23.1 µM [falling, partial curve] | 18.4 µM [falling, partial curve]
38 | O=C(O)CCC(NS(=O)(=O)c1ccc(N2CCCC2=O)cc1)C(=O)O (stereo not given) | -4.73 | 0.0291 µM [rising, full curve] | 
39 | CC(=O)N(Cc1cccs1)Cc1cc2ccc(C)c(C)c2nc1Cl | 35.4 |  | 29.1 µM [rising, single point]
40 | Cc1ccc(-n2c(=O)c(C#N)cc3c(=O)n4cccc(C)c4nc32)cc1 | 17.2 | 0.58 µM [rising, single point] | 
41 | CC(C)c1ccccc1OCC(=O)Nc1ccccc1C(=O)N1CCOCC1 | -39.2 | 14.6 µM [falling, partial curve] | 14.6 µM [falling, single point]
42 | CCc1ccc(/C(C)=N/Nc2cc(Cl)nc(C)n2)cc1 |  |  | 0.651 µM [falling, single point]

Row | SMILES | cell number change [%] | AC50 [1] | AC50 [2]
43 | COc1cc(/C=C/C(=O)OCC(=O)Nc2cc(C(F)(F)F)ccc2N2CCOCC2)ccc1O | 46.1 |  | 29.1 µM [rising, single point]
44 | C=CCOC(=O)C1=C(C)OC(N)=C(C#N)C1c1ccc(F)cc1 (stereo not given) | -16.8 | 1.3 µM [rising, full curve] | 
45 | CNC(=S)NNC(=O)c1oc2nc(-c3ccccc3)cc(C)c2c1N | 15.4 | 5.8 µM [rising, single point] | 
46 | S=C1NC2=C(C(c3ccc(Br)cc3)N1)N1CCC2CC1 (stereo not given) | 12.8 |  | 
47 | O=C(Oc1ccc(-c2cnc3ccccc3n2)cc1)c1ccc(Br)o1 | -46.2 | 16.4 µM [falling, single point] | 20.6 µM [falling, partial curve]
48 | COC(=O)C1CCN(Cc2c(C(=O)N3C[C@@H](C)O[C@@H](C)C3)nc3ccc(Cl)cn23)CC1 | -9.57 |  | 
49 | CC(=O)Oc1cccc(N2C(=O)c3ccc(C(=O)Nc4c[nH]c(=O)[nH]c4=O)cc3C2=O)c1 |  | 6.51 µM [rising, single point] | 2.06 µM [rising, single point]
50 | COc1ccc(CN=C2NN=C(c3ccc(Cl)cc3)CS2)cc1 | 16.2 |  | 
51 | Cc1ccc(NC(=O)CC(O)(C(F)(F)F)C(F)(F)F)c(Br)c1 | -48.9 |  | 29.1 µM [falling, single point]
52 | c1cncc(Nc2nc(-c3ccncc3)cs2)c1 | -6.08 | 2.06 µM [rising, full curve, poor fit] | 
53 | CCN(CC(=O)Nc1ccc(NC(C)=O)cc1)C(=O)/C=C/c1cn(-c2ccccc2)nc1-c1ccc(C)cc1 | -5.48 | 0.0461 µM [rising, full curve, poor fit] | 
54 | COc1ccccc1/C=C1\SC(=S)N(CCC(=O)NCCCn2ccnc2)C1=O | -4.29 | 0.461 µM [falling, single point] | 
55 | O=C(O)C1CCN(c2ccccc2[N+](=O)[O-])CC1 | -8.53 |  | 
56 | Cc1cccc(N2C(=O)C3C4C=CC(C4)C3C2=O)c1 (stereo not given) | 5.01 | 0.0731 µM [falling, full curve, poor fit] | 
57 | Cc1ccc(N(CC(=O)NC2CCCCC2)C(=O)CNC(=O)c2ccco2)cc1F | 38.2 |  | 29.1 µM [rising, single point]
58 | CC(NC(=O)CCNS(=O)(=O)c1ccc2c(c1)c(=O)n(C)c(=O)n2C)c1ccccc1 (stereo not given) | -16.9 | 0.291 µM [falling, full curve] | 
59 | Cc1nn(CC(=O)NC(=O)c2ccccc2)c(C)c1[N+](=O)[O-] | 21.6 | 32.6 µM [rising, single point] | 
60 | Cc1cccc(/C(N)=N/OC(=O)CCc2ccccc2)c1 | -26.4 | 6.51 µM [falling, full curve, poor fit] | 
61 | Cc1cccc(-n2c(CNC(=O)c3ccc(S(=O)(=O)N(C)C)cc3)nnc2SCC(=O)Nc2ccc(F)cc2)c1 | -6.68 |  | 0.731 µM [rising, single point]

Rewritten comma-delimited: five of the compounds above.
Row,SMILES,cell number change [%],AC50 [1],AC50 [2]
57,Cc1ccc(N(CC(=O)NC2CCCCC2)C(=O)CNC(=O)c2ccco2)cc1F,38.2,,"29.1 µM [rising, single point]"
58,CC(NC(=O)CCNS(=O)(=O)c1ccc2c(c1)c(=O)n(C)c(=O)n2C)c1ccccc1 (stereo not given),-16.9,"0.291 µM [falling, full curve]",
59,Cc1nn(CC(=O)NC(=O)c2ccccc2)c(C)c1[N+](=O)[O-],21.6,"32.6 µM [rising, single point]",
60,Cc1cccc(/C(N)=N/OC(=O)CCc2ccccc2)c1,-26.4,"6.51 µM [falling, full curve, poor fit]",
61,Cc1cccc(-n2c(CNC(=O)c3ccc(S(=O)(=O)N(C)C)cc3)nnc2SCC(=O)Nc2ccc(F)cc2)c1,-6.68,,"0.731 µM [rising, single point]"
